Structures can show the parent of a compound that is named as a salt. This is one part of the list. The numbers are fractions of the control, whatever unit the source prints. Most values lie at the level of the controls, where differences are scatter.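 MIN6, a mouse insulinoma beta-cell line, stably carries a lentiviral reporter where Pdx1 and Ins1 promoters each drive a nuclear fluorescent protein; Hoechst staining and automated imaging counted cells. Drugs were candidate hits if Ins1 promoter readout exceeded two median absolute deviations from DMSO controls while Pdx1 activity stayed near normal.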

The test concerns MIN6. The experiment in a line: % Pdx1+ Ins1+ (double-positive, mature) cells relative to DMSO control (fold of DMSO control); higher = more mature Ins1 promoter-active cells. As to conditions: 8.5 µM; 48 h; glucose 5 mM.
For the compound `Cc1nc2ccccn2c(=O)c1CCN1CCC(C(=O)c2ccc(F)cc2)CC1` [Pirenperone], the “% Pdx1+ Ins1+” value worked out at 1.06.

`C=C(C)[C@@H]1CC[C@]2(CO)CC[C@]3(C)[C@H](CC[C@@H]4[C@@]5(C)CC[C@H](O)C(C)(C)[C@@H]5CC[C@]43C)[C@@H]12` [Betulin]: the “% Pdx1+ Ins1+” value was found to be 0.904.

Take `CC(=O)O[C@H]1C(=O)[C@@]2(C)[C@H]([C@H](OC(=O)c3ccccc3)[C@]3(O)C[C@H](OC(=O)[C@H](O)[C@@H](NC(=O)c4ccccc4)c4ccccc4)C(C)=C1C3(C)C)[C@]1(OC(C)=O)CO[C@@H]1C[C@@H]2O` [Paclitaxel]: the “% Pdx1+ Ins1+” value was found to be 1.09.

Regarding `Cc1c(NC(=O)c2cccnc2)c(=O)n(-c2ccccc2)n1C` [Nifenazone], the “% Pdx1+ Ins1+” value is 0.948.

As to `NS(=O)(=O)c1cc2c(cc1C(F)(F)F)NCNS2(=O)=O` [Hydroflumethiazide], the “% Pdx1+ Ins1+” value was found to be 1.15.

As to `CC(C)NC[C@@H](O)COc1ccc(CC(N)=O)cc1` [(R)-(+)-Atenolol], the “% Pdx1+ Ins1+” value is 0.852.

With `CC(O)Cn1cnc2c1c(=O)n(C)c(=O)n2C` (stereo unspecified) [Proxyphylline], the “% Pdx1+ Ins1+” value is 0.881.

Take `CC[C@@H]1C(=O)OC[C@@H]1Cc1cncn1C` [Pilocarpine nitrate]: the “% Pdx1+ Ins1+” value was determined as 0.93.

In the case of `CN1C(=O)CC[C@H]1c1cccnc1` [Cotinine (-)], the “% Pdx1+ Ins1+” value turned out to be 1.05.

For `CO[C@@H]1[C@@H](O[C@@H]2O[C@H](C)[C@@H](O[C@H]3C[C@@](C)(O)[C@@H](OC(=O)CC(C)C)[C@H](C)O3)[C@H](N(C)C)[C@H]2O)[C@@H](CC=O)C[C@@H](C)[C@@H](O)/C=C/C=C/C[C@@H](C)OC(=O)C[C@H]1OC(C)=O` [Josamycin], the “% Pdx1+ Ins1+” value worked out at 1.07.

For `CC(=O)OCC(=O)[C@@]12OC(C)(C)O[C@@H]1C[C@H]1[C@@H]3C[C@H](F)C4=CC(=O)C=C[C@]4(C)[C@@]3(F)[C@@H](O)C[C@@]12C` [Fluocinonide], the “% Pdx1+ Ins1+” value is 0.819.

In the case of `c1ccc2c(CC3=NCCN3)cccc2c1` [Naphazoline hydrochloride], the “% Pdx1+ Ins1+” value came to 0.899.

In the case of `COC(=O)C1=CO[C@@H](C)[C@H]2CN3CCc4c([nH]c5ccccc45)[C@@H]3C[C@H]12` [Ajmalicine hydrochloride], the “% Pdx1+ Ins1+” value was determined as 0.946.

Consider `CCC(=O)O[C@@H]1CC(=O)O[C@H](C)C/C=C/C=C/[C@H](O)[C@H](C)C[C@H](CC=O)[C@H](O[C@@H]2O[C@H](C)[C@@H](O[C@H]3C[C@@](C)(O)[C@@H](OC(=O)CC)[C@H](C)O3)[C@H](N(C)C)[C@H]2O)[C@H]1OC` [Midecamycin], for which the “% Pdx1+ Ins1+” value turned out to be 1.07.

Consider `CCN(CC)CC(=O)Nc1c(C)cccc1C` [Lidocaïne hydrochloride], for which the “% Pdx1+ Ins1+” value is 0.994.

For `CC(=O)NS(=O)(=O)c1ccc(N)cc1` [Sulfacetamide sodic hydrate], the “% Pdx1+ Ins1+” value amounted to 1.11.

Turning to `COc1cccc2c1C(=O)c1c(O)c3c(c(O)c1C2=O)C[C@@](O)(C(C)=O)C[C@@H]3O[C@H]1C[C@H](N)[C@H](O)[C@H](C)O1` [Daunorubicin hydrochloride], the “% Pdx1+ Ins1+” value was found to be 0.342.

Turning to `CN1CCN(C(c2ccccc2)c2ccccc2)CC1` [Cyclizine hydrochloride], the “% Pdx1+ Ins1+” value stood at 0.881.

As for `O=C(O)c1ccccc1C(=O)Nc1ccc(S(=O)(=O)Nc2nccs2)cc1` [Phthalylsulfathiazole], the “% Pdx1+ Ins1+” value was 0.983.

For the compound `OCCN(CCO)c1nc(N2CCCCC2)c2nc(N(CCO)CCO)nc(N3CCCCC3)c2n1` [Dipyridamole], the “% Pdx1+ Ins1+” value is 1.12.

Consider `CC1CC(OC(=O)c2ccccc2O)CC(C)(C)C1` (stereo unspecified) [Homosalate], for which the “% Pdx1+ Ins1+” value came out at 0.903.

Turning to `NC[C@@H]1O[C@@H](O[C@H]2[C@H](O)[C@@H](O[C@H]3O[C@H](CO)[C@@H](O)[C@H](N)[C@H]3O)[C@H](N)C[C@@H]2N)[C@@H](O)[C@H](O)[C@H]1O` [Kanamycin A sulfate], the “% Pdx1+ Ins1+” value turned out to be 0.974.

With `O=C(CCCN1CCN(c2ccccn2)CC1)c1ccc(F)cc1` [Azaperone], the “% Pdx1+ Ins1+” value was found to be 1.04.

With `C[C@H](CCC(=O)O)[C@H]1CC[C@H]2[C@@H]3[C@@H](O)C[C@@H]4C[C@H](O)CC[C@]4(C)[C@H]3CC[C@]12C` [Urosiol], the “% Pdx1+ Ins1+” value was found to be 0.954.

Take `C#C[C@]1(O)CC[C@H]2[C@@H]3CCC4=CCCC[C@@H]4[C@H]3CC[C@@]21C` [Lynestrenol]: the “% Pdx1+ Ins1+” value came to 1.03.

Take `CN1CCC(=C2c3ccccc3Sc3ccccc32)CC1` [Pimethixene maleate]: the “% Pdx1+ Ins1+” value was 1.01.

Consider `N[C@@H](Cc1cc(I)c(Oc2ccc(O)c(I)c2)c(I)c1)C(=O)O` [Liothyronine], for which the “% Pdx1+ Ins1+” value was determined as 1.01.

As for `C[C@]12C[C@H](O)[C@H]3[C@@H](CCC4=CC(=O)CC[C@@]43C)[C@@H]1CC[C@@H]2C(=O)CO` [Corticosterone], the “% Pdx1+ Ins1+” value was 0.916.

In the case of `C/C(=C(\CCOP(=O)(O)O)SC(=O)c1ccccc1)N(C=O)Cc1cnc(C)nc1N` [Benfotiamine], the “% Pdx1+ Ins1+” value came to 0.89.

Turning to `CCN(CC)C(=S)SSC(=S)N(CC)CC` [Disulfiram], the “% Pdx1+ Ins1+” value is 1.11.

On to `O=c1cc(-c2ccccc2)oc2cc(O)cc(O)c12` [Chrysin], for which the “% Pdx1+ Ins1+” value amounted to 0.932.

For the compound `Cc1ccccc1OCC(O)CO` (stereo unspecified) [Mephenesin], the “% Pdx1+ Ins1+” value was found to be 1.05.

Consider `O=C1CN(/N=C/c2ccc([N+](=O)[O-])o2)C(=O)N1` [Nitrofurantoin], for which the “% Pdx1+ Ins1+” value was 1.03.

On to `CCN(CC)CCOC(=O)C(Cc1cccc2ccccc12)CC1CCCO1` (stereo unspecified) [Nafronyl oxalate], for which the “% Pdx1+ Ins1+” value is 0.963.

Regarding `C[C@H](N)[C@H](O)c1cccc(O)c1` [Metaraminol bitartrate], the “% Pdx1+ Ins1+” value came to 0.982.

Turning to `CCOC(=O)n1ccn(C)c1=S` [Carbimazole], the “% Pdx1+ Ins1+” value came out at 0.882.

Turning to `O=C1CN(/N=C/c2ccc(-c3ccc([N+](=O)[O-])cc3)o2)C(=O)N1` [Dantrolene sodium salt], the “% Pdx1+ Ins1+” value worked out at 0.941.

On to `Cc1cc(NS(=O)(=O)c2ccc(N)cc2)no1` [Sulfamethoxazole], for which the “% Pdx1+ Ins1+” value worked out at 1.12.

In the case of `CN[C@@H]1[C@@H](O)[C@@H](O[C@@H]2[C@@H](O)[C@H](O[C@H]3OC(CN)=CC[C@H]3N)[C@@H](N)C[C@H]2N)OC[C@]1(C)O` [Sisomicin sulfate], the “% Pdx1+ Ins1+” value turned out to be 1.01.

Take `CC1(C)S[C@@H]2[C@H](NC(=O)[C@H](C(=O)O)c3ccsc3)C(=O)N2[C@H]1C(=O)O` [Ticarcillin sodium]: the “% Pdx1+ Ins1+” value worked out at 0.848.

As for `CCCC1O[C@@H]2C[C@H]3[C@@H]4CCC5=CC(=O)C=C[C@]5(C)[C@H]4[C@@H](O)C[C@]3(C)[C@]2(C(=O)CO)O1` (stereo partly specified) [Budesonide], the “% Pdx1+ Ins1+” value amounted to 1.

As for `CC(C(=O)O)c1cccc(C(=O)c2ccccc2)c1` (stereo unspecified) [Ketoprofen], the “% Pdx1+ Ins1+” value came out at 1.09.

For the compound `CCCCN(CCCC)CCC(O)c1cc2c(Cl)cc(Cl)cc2c2cc(C(F)(F)F)ccc12` (stereo unspecified) [Halofantrine hydrochloride], the “% Pdx1+ Ins1+” value came out at 0.838.

As for `CCOc1cc(CC(=O)N[C@@H](CC(C)C)c2ccccc2N2CCCCC2)ccc1C(=O)O` [Repaglinide], the “% Pdx1+ Ins1+” value is 0.921.

`CC(=O)OCC(=O)[C@@]1(O)[C@H](C)C[C@H]2[C@@H]3CCC4=CC(=O)C=C[C@]4(C)[C@@]3(F)[C@@H](O)C[C@@]21C` [Dexamethasone acetate]: the “% Pdx1+ Ins1+” value turned out to be 1.01.

Regarding `COc1ncnc(NS(=O)(=O)c2ccc(N)cc2)c1OC` [Sulfadoxine], the “% Pdx1+ Ins1+” value was 0.964.

In the case of `COc1ccc(C(=O)c2ccccc2)c(O)c1` [Oxybenzone], the “% Pdx1+ Ins1+” value worked out at 0.933.

`CCCCCN(CCCCC)C(=O)C(CCC(=O)O)NC(=O)c1ccc(Cl)c(Cl)c1` (stereo unspecified) [Lorglumide sodium salt]: the “% Pdx1+ Ins1+” value worked out at 1.04.

Turning to `CC(C)(C)NC(=O)[C@@H]1C[C@@H]2CCCC[C@@H]2CN1C[C@@H](O)[C@H](Cc1ccccc1)NC(=O)[C@H](CC(N)=O)NC(=O)c1ccc2ccccc2n1` [Saquinavir mesylate], the “% Pdx1+ Ins1+” value amounted to 0.809.

`Nc1nc2c(ncn2COCCO)c(=O)[nH]1` [Acyclovir]: the “% Pdx1+ Ins1+” value was 0.729.

In the case of `C[C@@H]1C[C@H]2[C@@H]3C[C@H](F)C4=CC(=O)C=C[C@]4(C)[C@@]3(Cl)[C@@H](O)C[C@]2(C)[C@H]1C(=O)COC(=O)C(C)(C)C` [Clocortolone pivalate], the “% Pdx1+ Ins1+” value is 0.858.

With `CNCCCC12CCC(c3ccccc31)c1ccccc12` [Maprotiline hydrochloride], the “% Pdx1+ Ins1+” value stood at 0.778.

As for `OC(c1cc(C(F)(F)F)nc2c(C(F)(F)F)cccc12)C1CCCCN1` (stereo unspecified) [Mefloquine hydrochloride], the “% Pdx1+ Ins1+” value came out at 0.395.

As to `C[C@]12C=CC(=O)C=C1CC[C@H]1[C@@H]3C[C@@H](O)[C@](O)(C(=O)CO)[C@@]3(C)C[C@H](O)[C@@]12F` [Triamcinolone], the “% Pdx1+ Ins1+” value was found to be 0.937.

Regarding `CC1(C)O[C@@H]2C[C@H]3[C@@H]4CCC5=CC(=O)CC[C@]5(C)[C@@]4(F)[C@@H](O)C[C@]3(C)[C@]2(C(=O)CCl)O1` [Halcinonide], the “% Pdx1+ Ins1+” value turned out to be 0.776.

Turning to `C[C@@H](O)[C@H]1C(=O)N2C(C(=O)O)=C(S[C@@H]3CN[C@H](C(=O)N(C)C)C3)[C@H](C)[C@H]12` [Meropenem], the “% Pdx1+ Ins1+” value was 1.03.

As to `CC(C)NC[C@H](O)COc1cccc2ccccc12` [(S)-propranolol hydrochloride], the “% Pdx1+ Ins1+” value amounted to 0.926.

On to `CC(=O)CCCCn1c(=O)c2c(ncn2C)n(C)c1=O` [Pentoxifylline], for which the “% Pdx1+ Ins1+” value turned out to be 1.09.

`CN1C(=O)OC(C)(C)C1=O` [Trimethadione]: the “% Pdx1+ Ins1+” value was found to be 0.972.

Take `CN(C/C=C/c1ccccc1)Cc1cccc2ccccc12` [Naftifine hydrochloride]: the “% Pdx1+ Ins1+” value amounted to 0.912.

On to `CN(C)CCCSC(=N)N` [Dimaprit dihydrochloride], for which the “% Pdx1+ Ins1+” value was determined as 0.908.

Consider `Cc1onc(-c2c(F)cccc2Cl)c1C(=O)N[C@@H]1C(=O)N2[C@@H]1SC(C)(C)[C@@H]2C(=O)O` [Flucloxacillin sodium], for which the “% Pdx1+ Ins1+” value came out at 1.02.

Turning to `CCN1CCCC(OC(=O)C(c2ccccc2)c2ccccc2)C1` (stereo unspecified) [Piperidolate hydrochloride], the “% Pdx1+ Ins1+” value came out at 0.903.

For the compound `COc1c(C)c2c(c(O)c1C/C=C(\C)CCC(=O)O)C(=O)OC2` [Mycophenolic acid], the “% Pdx1+ Ins1+” value worked out at 0.754.

Take `CC(=O)NC(CC(=O)O)C(=O)O` (racemic) [Aspartic acid, N-acetyl (R,S)]: the “% Pdx1+ Ins1+” value worked out at 0.93.

For `NS(=O)(=O)c1cc(Cl)c(Cl)c(S(N)(=O)=O)c1` [Dichlorphenamide], the “% Pdx1+ Ins1+” value was 1.

Source of the values: the supplement of paper PMC4807443.
